PubChem BioAssay AID720710, VTT Finland, 2013
Screen: 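Knock-downs that leave cyclin E-high cells sensitive to replication stress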 (primary screen). Cells: human U-2 OS bone cancer cells, parental and a cyclin E (CCNE1) overexpressing line. Reagents: single siRNA against human genes, 1 µM siRNA in the printed spot mix. Time to read-out: 67 h. Challenge: half the arrays: hydroxyurea 2 mM for 16 h, then 3 h recovery; other arrays untreated. Read-out: 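DNA synthesis measured as imaged EdU uptake per nucleus (DAPI) at 67 h, normalised to subgrid median and given as z-score versus non-targeting controls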. Direction: EdU z-score, cyclin E line, hydroxyurea and EdU z-score, parental, hydroxyurea and EdU z-score, cyclin E line, untreated and EdU z-score, parental, untreated: higher = more DNA synthesis than non-targeting controls.
The deposit covers about 1,380 reagents; below is a random part of them. 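One array per condition without replicates; hydroxyurea arrays received 2 mM for 16 h plus 3 h recovery.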 Reagents against one gene are numbered here.

no.	target gene	reagent	EdU z-score, cyclin E line, hydroxyurea	EdU z-score, parental, hydroxyurea	EdU z-score, cyclin E line, untreated	EdU z-score, parental, untreated
1	TOPBP1	1	0.755	-2.92	-1.56	-0.271
2	TOPBP1	2	0.805	-0.825	0.0343	-0.0304
3	S100A11	1	-1.63	-3.18	-2.63	-0.24
4	S100A11	2	-0.546	-0.95	-0.946	1.88
5	LOC729659	1	-0.144	-3.15	-0.894	-0.465
6	LOC729659	2	0.928	-1.05	-0.525	0.241
7	H4C3	1	-1.96	0.0222	-0.694	-0.484
8	H4C3	2	-0.151	3.31	0.0326	-0.31
9	RAD51	1	-1.07	-2.18	-1.04	-1.35
10	RAD51	2	1.56	-1.57	-1.02	1.38
11	RAD9B	1	-1.38	-1.78	-1.4	-0.0306
12	RAD9B	2	0.0582	-0.135	-1.05	0.0527
13	SUMO3	1	0.0785	-1.92	-0.921	0.144
14	SUMO3	2	0.926	4.27	-0.833	0.792
15	MCM5	1	-0.499	-1.5	-0.0512	-1.01
16	MCM5	2	-0.273	1.03	0.308	-0.462
17	ESCO2	1	-0.995	-0.699	0.062	-0.469
18	ESCO2	2	0.816	-0.484	0.394	0.44
19	UBR5	1	-0.0048	-3.37	-1.54	-0.231
20	UBR5	2	0.598	-0.29	-0.698	0.123
21	TOP3B	1	-1.26	0.455	0.0633	-1.11
22	TOP3B	2	-1.01	0.743	0.2	-0.109
23	NAP1L1	1	0.103	-1.88	-2.09	-2.97
24	NAP1L1	2	0.69	1.74	-1.29	-1.24
25	SOD2	1	0.391	-1.24	-1.36	-1.1
26	SOD2	2	1.22	3.47	-0.122	-0.277
27	BCL6	1	-0.175	-0.00236	-0.399	-0.198
28	BCL6	2	1.58	1.16	0.355	0.989
29	KLHL41	1	0.132	-2.31	-4.2	0.332
30	KLHL41	2	0.991	-0.255	-0.292	0.51
31	RINT1	1	-2.76	-1.18	-0.559	-3.28
32	RINT1	2	-1.73	1.68	-0.531	-2.66
33	HDAC7	1	-0.475	-1.04	-0.639	0.397
34	HDAC7	2	-0.451	0.517	0.24	1.04
35	CENPH	1	-1.04	-2.74	-0.864	-0.583
36	CENPH	2	1.47	-0.806	-0.0578	0.853
37	ORC6	1	-0.935	-3.27	-1.91	-0.773
38	ORC6	2	-0.0277	0.707	0.287	0.105
39	SMC1B	1	-3.86	-0.831	-1.4	-1.72
40	SMC1B	2	-1.74	2.11	-0.735	-1.28
41	GNL1	1	-1.1	0.596	-0.255	-1.51
42	GNL1	2	0.886	1.19	-0.202	0.0149
43	FAM120A	1	-2	0.477	0.0982	-1.94
44	FAM120A	2	-1.17	1.65	0.318	1.41
45	TP73	1	-0.604	-1.78	-1.29	0.465
46	TP73	2	0.142	-0.629	-0.615	2.96
47	MRPS11	1	-0.409	-1.12	1.23	0.608
48	MRPS11	2	0.443	2.82	1.38	1.15
49	CHAF1B	1	-0.763	-2.72	-3.52	-0.881
50	CHAF1B	2	0.574	-2.48	0.0884	0.0186
51	CHRAC1	1	0.629	-4.94	-1.48	-0.493
52	CHRAC1	2	1.02	2.94	1.07	-0.172
53	REV3L	1	-2.48	-1.41	-0.944	-2.83
54	REV3L	2	0.876	0.698	0.967	-0.443
55	FAN1	1	-0.571	-1.36	-1.13	-1.72
56	FAN1	2	0.689	0.917	-0.948	-0.527
57	EMSY	1	-1.28	-2.39	-1.71	-0.921
58	EMSY	2	-0.377	-0.238	-0.139	0.975

Reformatted: results already given.
{"target gene":"TOPBP1","reagent":1,"EdU z-score, cyclin E line, hydroxyurea":0.755,"EdU z-score, parental, hydroxyurea":-2.92,"EdU z-score, cyclin E line, untreated":-1.56,"EdU z-score, parental, untreated":-0.271}
{"target gene":"TOPBP1","reagent":2,"EdU z-score, cyclin E line, hydroxyurea":0.805,"EdU z-score, parental, hydroxyurea":-0.825,"EdU z-score, cyclin E line, untreated":0.0343,"EdU z-score, parental, untreated":-0.0304}
{"target gene":"S100A11","reagent":1,"EdU z-score, cyclin E line, hydroxyurea":-1.63,"EdU z-score, parental, hydroxyurea":-3.18,"EdU z-score, cyclin E line, untreated":-2.63,"EdU z-score, parental, untreated":-0.24}
{"target gene":"S100A11","reagent":2,"EdU z-score, cyclin E line, hydroxyurea":-0.546,"EdU z-score, parental, hydroxyurea":-0.95,"EdU z-score, cyclin E line, untreated":-0.946,"EdU z-score, parental, untreated":1.88}
{"target gene":"LOC729659","reagent":1,"EdU z-score, cyclin E line, hydroxyurea":-0.144,"EdU z-score, parental, hydroxyurea":-3.15,"EdU z-score, cyclin E line, untreated":-0.894,"EdU z-score, parental, untreated":-0.465}
{"target gene":"LOC729659","reagent":2,"EdU z-score, cyclin E line, hydroxyurea":0.928,"EdU z-score, parental, hydroxyurea":-1.05,"EdU z-score, cyclin E line, untreated":-0.525,"EdU z-score, parental, untreated":0.241}
{"target gene":"H4C3","reagent":1,"EdU z-score, cyclin E line, hydroxyurea":-1.96,"EdU z-score, parental, hydroxyurea":0.0222,"EdU z-score, cyclin E line, untreated":-0.694,"EdU z-score, parental, untreated":-0.484}
{"target gene":"H4C3","reagent":2,"EdU z-score, cyclin E line, hydroxyurea":-0.151,"EdU z-score, parental, hydroxyurea":3.31,"EdU z-score, cyclin E line, untreated":0.0326,"EdU z-score, parental, untreated":-0.31}
{"target gene":"RAD51","reagent":1,"EdU z-score, cyclin E line, hydroxyurea":-1.07,"EdU z-score, parental, hydroxyurea":-2.18,"EdU z-score, cyclin E line, untreated":-1.04,"EdU z-score, parental, untreated":-1.35}
